## Results of single-concentration screens

Source: ChEMBL document CHEMBL3988442, “University of Dundee, Small-Polar-MMV Screening Library” (2021).

Results are given as percent effect. How 0% and 100% were set is not recorded. Most values in the screen are low, and negative values occur. This is an unselected part of the compounds tested.

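Phenotypic screen: M. tuberculosis growth, glucose 7H9 medium, 3 days; the read-out is not stated. Compounds at 500 µM. Higher reads as more growth inhibition (inferred: compounds with an IC50 in retests scored well above the rest). About 18,000 compounds were tested under these conditions; 7.9% (about 1,400) showed 50% or more at least once.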

* Cc1nn(C)c(Cl)c1C1CCCN1 (centres unmarked) : -6.097%
* Cc1noc(CN(C)CC2(CO)CCOCC2)n1 : 4.538%
* Cc1cc(C)n(CC(=O)N(C)C2CCCC2)n1 : 12.17%
* CCC1CN(CCn2cncn2)CCN1CCOC (centres unmarked) : -10.02%
* CC(C)(C)OC(=O)N1C[C@@H]2CCN[C@@H]2C1 : -19.62%
* CN(C)c1ccc(Br)c(S(=O)(=O)NC2CCNC2)c1 (centres unmarked) : 69.33%
* CC(NC(=O)CCCN1CCCCC1)c1cnn(C)c1 (centres unmarked) : 6.015%
* CC1CN=C(N2CCN(c3ccc(C#N)cn3)CC2)S1 (centres unmarked) : -9.511%
* CCN(Cc1c(OC)ccc(F)c1F)[C@H]1COC[C@@H]1O : 17.86%
* COCCCNC(=O)Nc1cnn(C)c1 : 4.314%
* CC(=O)N1c2ccccc2N(C)C(=O)C1(C)C : 28.08%
* Cc1ccccc1C(=O)N[C@@H]1CN(C)C[C@H]1CN(C)C : 21.8%
* CCCNC(=O)Nc1cccc(C(=O)N(C)C)c1 : 3.859%
* Cc1ccc(NC(=O)Cn2ccc(=O)n(C)c2=O)nc1 : -0.6575%
* Cn1ccnc1SCC(=O)NC(=O)NCc1ccco1 : 23.64%
* CCCN1CCN(Cc2nccn2C)CC1 : -7.889%
* CC(=O)NCc1nc2ccccc2n1CC(N)=O : -13.63%
* Brc1nnnn1-c1ccc2c(c1)OCCO2 : 6.426%
* Cc1cc(CN(C)C(=O)C2CCCCCN2C)no1 (centres unmarked) : 10.4%
* CCNC(=O)CCS(=O)(=O)c1cccc(Cl)c1 : 3.43%
* O=C1[C@H]2CNC[C@H]2C(=O)N1Cc1ccccc1 : 8.401%
* CCNC(=O)c1ccc(CNS(=O)(=O)N(C)C)cc1 : 4.365%
* CCCc1ncc(C(=O)NCC(C)S(N)(=O)=O)s1 (centres unmarked) : 22.59%
* CCCNC(=O)CSc1nnc(NCC2CCCO2)s1 (centres unmarked) : 10.77%
* CNCC(=O)NC1CC(=O)N(c2ccccc2OC)C1 (centres unmarked) : 14.44%
* O=C1CC2(CCSC2)C(=O)N1Cc1ccc(Cl)cn1 (centres unmarked) : -14.12%
* N#Cc1cccnc1NCc1ccc(CO)c(F)c1 : 33.14%
* Cc1nnc(CCNC(=O)C(N)c2c(C)n[nH]c2C)s1 (centres unmarked) : -10.77%
* O=C(NCCn1cncn1)[C@@H](O)Cc1ccccc1 : 12.27%
* CN(C)CCOC1CCNCC1 : -0.2854%
* CCC(C)OCC(=O)N(C)Cc1ccc(O)cc1 (centres unmarked) : 32.08%
* N[C@H]1CCN(S(=O)(=O)c2ccccc2)C1 : 5.194%
* NC(=O)CCN1CCCC1c1ccsc1 (centres unmarked) : 18.63%
* Cc1cc(C)cc(NC(=O)CN2CCC(O)CC2)c1 : 26.48%
* NC(=O)Cc1ccc(-c2ccc(C(N)=O)c(Cl)c2)cc1 : 12.25%
* CN(Cc1ccco1)C(=O)Nc1ccc(N(C)C)nc1 : -6.204%

For reference, 2 entries once more:

| Compound | Percent Effect |
|---|---|
| `Cc1nn(C)c(Cl)c1C1CCCN1` (centres unmarked) | -6.097% |
| `CCC(C)OCC(=O)N(C)Cc1ccc(O)cc1` (centres unmarked) | 32.08% |